Laboratory results: PubChem BioAssay AID2551 (National Center for Advancing Translational Sciences (NCATS), 2010)
The campaign covered roughly 310,000 compounds. About 17,000 (5.5%) were called active. Inconclusive results, whose numbers are uncertain, are shown with a selection of clear calls. Calls follow the shape of the dose curve; as a rule, active = well fitted inhibition curve with a large enough effect; inconclusive = small, poorly fitted or top-dose-only effect, or effect the other way; inactive = no such curve, though single readings can be large or run the other way. Potencies of inconclusive entries are doubtful fits and often do not repeat.

Amino acid sequences for entries named in this document (tags omitted). A change or cut given only in a name is not applied to a line headed by its entry.
UniProt P51450: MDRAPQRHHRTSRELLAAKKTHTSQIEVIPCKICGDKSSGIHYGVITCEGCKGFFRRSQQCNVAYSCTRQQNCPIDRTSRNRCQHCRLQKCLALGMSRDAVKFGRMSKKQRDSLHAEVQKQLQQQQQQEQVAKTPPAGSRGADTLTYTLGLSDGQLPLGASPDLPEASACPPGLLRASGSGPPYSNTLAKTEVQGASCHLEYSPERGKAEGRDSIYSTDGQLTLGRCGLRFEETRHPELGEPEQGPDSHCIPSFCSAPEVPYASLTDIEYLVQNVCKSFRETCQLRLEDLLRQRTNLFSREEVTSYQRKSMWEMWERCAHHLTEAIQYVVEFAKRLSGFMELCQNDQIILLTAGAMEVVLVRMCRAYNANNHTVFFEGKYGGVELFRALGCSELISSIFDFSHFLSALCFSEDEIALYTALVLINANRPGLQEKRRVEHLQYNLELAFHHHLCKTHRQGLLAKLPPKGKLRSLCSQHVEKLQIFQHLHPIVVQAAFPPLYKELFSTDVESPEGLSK

biological target: Nuclear receptor ROR-gamma (Mus musculus) (UniProt P51450); test: qHTS for inhibitors of ROR gamma transcriptional activity; settings: Drosophila S2 Gal4-RORgamma UAS-luciferase reporter, 20 h; activity change, negative = inhibition: at 53.6 µM (top of the series); also: nearly all actives have a fitted effect of over 60% in size
How it was run: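 Schneider cells (Drosophila), stable Gal4 DBD–ROR gamma + UAS-luc; 1 hr cmpd preincubation; Cu2+ induction 700 uM final; 20 hr ambient; luminescence.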
% is scaled to controls: 0 for no effect and ±100 for the full control effect; potency is read from the fitted curve at half-maximal effect.

Compound | Potency | activity change, negative = inhibition
CC1CC(C)CN(S(=O)(=O)c2ccc(NN)nc2)C1 (stereo not drawn) | inconclusive: 11.2 µM [inhibitor, single point] | 
O=C(CC(Sc1ccccc1)c1cccs1)c1ccco1 (stereo not drawn) | inconclusive: 35.5 µM [inhibitor, single point] | 
COc1ccc(C(=O)Nc2ccc(-c3n[nH]c(=S)o3)cc2)cc1 | inconclusive: 10 µM [inhibitor, partial curve] | 
COc1cc(CCCN2C(=S)NC[C@@H]2c2ccccc2)cc(OC)c1OC | active: 10 µM | 
O=C(O)C(Cc1cn[nH]n1)=NO |  | inactive: -7.13%
CCCCCCC1CC(CC(=O)Nc2ccc([N+](=O)[O-])cc2)C(=O)O1 (stereo not drawn) | inconclusive: 17.8 µM [activator, single point] | 
CCn1nc(C(=O)Nc2nc3ccccc3[nH]2)c2ccccc2c1=O | active: 11.2 µM | 
COc1ccc(N2CCN(C(=O)CCCn3nnnc3CN3CCOCC3)C(C)C2)cc1 (stereo not drawn) | inconclusive: 14.1 µM [activator, single point] | 
COc1ccc(C)cc1NC(=O)CSc1ccc(-c2ccco2)nn1 | inconclusive: 7.08 µM [activator, full curve, poor fit] | 
C/C(=N\NC(=O)c1ccccc1O)c1ccc(Br)s1 | active: 2 µM | 
Cc1sc2nc(CC(N)=O)[nH]c(=O)c2c1-c1ccccc1 | inconclusive: 11.2 µM [activator, partial curve] | 
COC(=O)CSc1nnc(-c2ccc(S(=O)(=O)N3CCCC3)cc2)o1 |  | inactive: -28.3%
CC(/C=N/NC(=O)c1ccco1)=C\c1ccccc1 | inconclusive: 22.4 µM [inhibitor, single point] | 
CN(c1ccc(C(=O)Nc2nccs2)cc1)S(=O)(=O)c1ccccc1 | active: 2.82 µM | 
CC(C)(C)n1nnnc1C(c1ccc(C(F)(F)F)cc1)N(Cc1ccccc1)Cc1ccco1 (stereo not drawn) | active: 6.31 µM | 
COC(=O)CCC(=O)N(CCN(C(=O)CCC(=O)OC)c1ccccc1)c1ccccc1 |  | inactive: -3.1%
Cc1cc(C)cc(NC(=O)Cn2nnc(C(=O)NCc3ccc4c(c3)OCO4)c2N)c1 | inconclusive: 31.6 µM [inhibitor, single point] | 
Nc1cc(C(=O)c2cccs2)ccc1Cl | inconclusive: 31.6 µM [activator, single point] | 
CCCC(=O)N1CCN(c2ccc(NC(=O)c3cccs3)cc2)CC1 |  | inactive: 16.8%
CS(=O)(=O)c1ccc(Sc2nc3ccccc3[nH]2)c([N+](=O)[O-])c1 | inconclusive: 11.2 µM [inhibitor, partial curve, poor fit] | 
C=Cn1cc[n+](CC(=O)c2ccc(Br)cc2)c1 | inconclusive: 3.16 µM [inhibitor, partial curve] | 
O=C(NCCOc1cccc(Oc2ccccc2)c1)c1cc(-n2cnnc2)ccc1Cl | inconclusive: 35.5 µM [activator, single point] | 
Cc1cc(C)c2nc(SC(C)C(=O)NCC(=O)Nc3ccc(F)c(F)c3F)cc(C)c2c1 (stereo not drawn) |  | inactive: -3.91%
CCc1ccc(-c2nc(CSCC(=O)N3CCN(c4ncccn4)CC3)c(C)o2)cc1 | active: 15.8 µM | 
Cc1cccc(SCc2noc(C(=O)NC(C)C)c2C(=O)O)c1 | inconclusive: 35.5 µM [inhibitor, single point] | 

Copied from the list:
`COc1ccc(C(=O)Nc2ccc(-c3n[nH]c(=S)o3)cc2)cc1` – Potency: inconclusive: 10 µM [inhibitor, partial curve]
`CCc1ccc(-c2nc(CSCC(=O)N3CCN(c4ncccn4)CC3)c(C)o2)cc1` – Potency: active: 15.8 µM

(next part)

Compound | Potency | activity change, negative = inhibition
CCOC(=O)N1CCN(S(=O)(=O)c2ccc(C(=O)NNc3nc4c(C)cc(C)cc4s3)cc2)CC1 | active: 14.1 µM | 
CCCCOC(=O)c1ccc(NC(c2ccc(C)cc2)P(=O)(OC)OC)cc1 (stereo not drawn) | inconclusive: 22.4 µM [activator, single point] | 
CC(=O)Nc1ccc(OCC(=O)NCc2ccccc2)cc1 |  | inactive: 20.2%
O=C(c1ccc(Cl)cc1[N+](=O)[O-])N1CCN(c2ccccn2)CC1 |  | inactive: 1.32%
Cc1c(NC2(C#N)CCCC2)c(=O)n(-c2ccccc2)n1C |  | inactive: 12.7%
O=S(=O)(NCc1ccccn1)c1ccc(Cl)s1 | active: 8.91 µM | 
O=C(OCn1nnc2ccccc2c1=O)c1ccc(S(=O)(=O)N2CCOCC2)cc1 | inconclusive: 35.5 µM [inhibitor, single point] | 
CCc1ccccc1NC(=O)c1ccc([N+](=O)[O-])s1 | active: 14.1 µM | 
Cc1ccccc1CSc1nc2c(c(=O)[nH]1)CCC2 |  | inactive: -8.91%
Cc1ccc(NC(=O)c2ccco2)c(NC(=O)c2ccc(Cl)cc2)c1 | inconclusive: 11.2 µM [activator, partial curve] | 
CNC(=S)N/N=C/c1ccc(-c2cc([N+](=O)[O-])ccc2Cl)o1 | inconclusive: 20 µM [inhibitor, single point] | 
CC1(C(=O)Nc2nnc(SCc3ccccc3)s2)Cc2ccccc2C(=O)O1 (stereo not drawn) | active: 10 µM | 
COc1ccc(N2C(=O)C(Cl)=C(Nc3c(C)n(C)n(-c4ccccc4)c3=O)C2=O)cc1 | inconclusive: 6.31 µM [activator, full curve, poor fit] | 
O=C(NNC(=O)C(c1ccccc1)c1ccccc1)c1ccccn1 | active: 5.62 µM | 
CC(=O)c1cccc(N(C(=O)c2ccco2)C(C(=O)NC2CCCC2)c2ccccc2F)c1 (stereo not drawn) |  | inactive: 31.9%
O=C1[C@@H]2[C@H]3[C@H](O)[C@H](O)C/C(=N/OC[C@@H](O)COCc4ccco4)[C@@H]3CC[C@H]2C(=O)N1c1ccc(F)cc1F |  | inactive: -14.2% [at 10 µM]
COCCOC(=O)C1=C(C)NC(=O)NC1c1cccc2ccccc12 (stereo not drawn) | inconclusive: 12.6 µM [activator, single point] | 
O=C(CSCc1c(F)cccc1Cl)NCc1ccco1 | inconclusive: 15.8 µM [activator, single point] | 
N#Cc1cccc(-c2nc3cnc(N4CCOCC4)nc3n(C[C@H]3CCCO3)c2=O)c1 |  | inactive: -13.8%
CCN(CCNC(=O)C1CCN(S(=O)(=O)c2cccc3cccnc23)CC1)c1ccccc1 | inconclusive: 0.126 µM [inhibitor, full curve, poor fit] | 
Cc1cccc(NC(=S)NCCc2ccc(F)cc2)c1C | active: 2 µM | 
CC(=O)NC(=S)NNC(=O)c1ccc(Br)cc1 | active: 12.6 µM | 
COc1ccccc1NS(=O)(=O)c1cccc(C(=O)N/N=C(\C)c2ccc(-n3ccnc3)cc2)c1 | inconclusive: 22.4 µM [inhibitor, single point] | 
Cc1ccc2c(c1)cc(CN(Cc1ccco1)C(=O)COc1ccccc1)c1nnnn12 | inconclusive: 10 µM [activator, partial curve] | 
COc1ccccc1C(=O)NNC(=O)c1sccc1-n1cccc1 | inconclusive: 35.5 µM [inhibitor, single point] | 

Compound | Potency | activity change, negative = inhibition
CC(=O)OCC(NC(=O)C(CCCCNC(=O)OCc1ccccc1)NC(=O)OC(C)(C)C)C1OC(n2ccc(=O)[nH]c2=O)C(OC(C)=O)C1OC(C)=O (stereo not drawn) |  | inactive: 15.3%
COC(=O)c1c(C)oc2ccc(N(C(=O)c3ccncc3)S(=O)(=O)c3ccccc3)cc12 |  | inactive: -27.1%
CCOc1cccc2sc(N(CCN(C)C)C(=O)/C=C/c3cccs3)nc12 |  | inactive: -35.2%
CCCOc1ccc(CCC(=O)N/N=C/c2ccc([N+](=O)[O-])o2)cc1 |  | inactive: -3.04%
CS(=O)(=O)N1CC(C(=O)O)Oc2ccc(CC(=O)O)cc21 (stereo not drawn) | inconclusive: 20 µM [inhibitor, single point] | 
CC(=O)c1c(CSc2ccccc2)oc2ccc(O)c(CN(C)C)c12 |  | inactive: 2.62%
CCNc1nc(NC(C)C)nc(ON=C(C)C)n1 | inconclusive: 17.8 µM [inhibitor, partial curve, poor fit] | 
COc1ccc2ccccc2c1/C=N/NC(=O)c1nnn(-c2nonc2N)c1C(C)C | inconclusive: 10 µM [inhibitor, partial curve] | 
CSc1ccc(C(=O)/C=C/c2ccc(N)cc2)cc1 | inconclusive: 35.5 µM [inhibitor, single point] | 
COC(CNC(=O)c1cn(C)c2ccc(S(=O)(=O)N3CCOCC3)cc2c1=O)OC |  | inactive: -0.252%
CC(=O)c1cccc(NC(=O)COC(=O)COc2c(Cl)cc(Cl)c3ccc(C)nc23)c1 | inconclusive: 35.5 µM [inhibitor, single point] | 
COc1ccc(N2CCN(C(=O)c3cccc(F)c3)CC2)c([N+](=O)[O-])c1 |  | inactive: -6.86%
CC(/C=C(\NC(=O)c1ccccc1)C(=O)N=Nc1c(O)[nH]c2ccc(C)cc12)=C\c1ccccc1 | inconclusive: 12.6 µM [activator, partial curve] | 
COc1ccc(CC(=O)n2nc(-c3cccnc3)nc2N)cc1 | inconclusive: 0.708 µM [activator, single point] | 
NC(=O)CC(NC(=O)c1ccccc1)c1ccc(N2CCC(Cc3ccccc3)CC2)c([N+](=O)[O-])c1 (stereo not drawn) | inconclusive: 31.6 µM [inhibitor, single point] | 
COc1ccc(-n2cnnc2SCC(=O)c2ccc(S(=O)(=O)N3CCOCC3)cc2)cc1 | inconclusive: 22.4 µM [inhibitor, single point] | 
CCn1c(COc2cccc(C)c2)nnc1SCC(=O)CC(=O)Nc1ccccc1OC | active: 10 µM | 
Cc1ccccc1C(O)c1ccncc1 (stereo not drawn) |  | inactive: 0.698%
CC(C)COc1ccc(CNC(=S)NCc2ccccc2)cc1 | active: 7.08 µM | 
COc1ccc(NS(=O)(=O)c2ccc(OC)c3ccccc23)cn1 | inconclusive: 12.6 µM [activator, single point] | 
Cc1cc(NC(=O)c2cccc(N3C(=O)CCC3=O)c2)no1 |  | inactive: 0.145%
Cc1ccc2nc(NC(=O)C3CCN(S(=O)(=O)c4cnc[nH]4)CC3)sc2c1 | inconclusive: 12.6 µM [activator, single point] | 
CSc1ccc(/C=C/C(=O)c2ccc(O)cc2)cc1 | active: 0.501 µM | 
